# Patent publication US4049375A, “Process for dyeing synthetic fibers formed from aromatic polyesters and new monoazo dyestuffs useful for such dyeing” (Produits Chimiques Ugine Kuhlmann, priority 1974, dated 1977)
# Assay: Dyeing of polyester fibers with dispersed dyestuff (shade)
# Conditions: Table A
row,SMILES,Shade on polyester fibers
1,"CCN(CC(F)(F)F)c1cc(NC(C)=O)c(N=Nc2c(C#N)cc([N+](=O)[O-])cc2[N+](=O)[O-])cc1OC [Example 2, [2-cyano-4,6-dinitro-benzene]-<1 azo 1>-[2-acetylamino-5-methoxy-N-ethyl-N-(2,2,2-trifluoro-ethyl)-4-amino-benzene]]",blue
2,CC(=O)OCCN(CC(F)(F)F)c1ccc(N=Nc2ccc([N+](=O)[O-])cc2C#N)cc1 [Example 3],scarlet
3,CC(=O)OCCOCCN(CC(F)(F)F)c1ccc(N=Nc2ccc([N+](=O)[O-])cc2C#N)cc1 [Example 4],scarlet
4,CCN(CC(F)(F)F)c1ccc(N=Nc2c(C#N)cc([N+](=O)[O-])cc2[N+](=O)[O-])c(NC(C)=O)c1 [Example 5],violet
5,CCN(CC(F)(F)F)c1cc(NC(C)=O)c(N=Nc2ccc([N+](=O)[O-])cc2C#N)cc1OC [Example 6],violet
6,COc1cc(N(C)CC(F)(F)F)ccc1N=Nc1ccc([N+](=O)[O-])cc1C#N [Example 7],red
7,COc1cc(N(CCOC(C)=O)CC(F)(F)F)ccc1N=Nc1ccc([N+](=O)[O-])cc1C#N [Example 9],red
8,CCN(CC(F)(F)F)c1ccc(N=Nc2c(Br)cc([N+](=O)[O-])cc2C#N)c(NC(C)=O)c1 [Example 10],violet
9,CC(=O)OCCN(CC(F)(F)F)c1ccc(N=Nc2ccc([N+](=O)[O-])cc2C#N)c(C)c1 [Example 11],red

# Same assay, conditions: polyester fibers, dispersed dyestuff
row,SMILES,Shade on polyester fibers
1,"CCN(CC(F)(F)F)c1ccc(N=Nc2ccc([N+](=O)[O-])cc2C#N)c(NC(C)=O)c1 [Example 1, [2-cyano-4-nitro-benzene]-<1 azo 1>-[2-acetylamino-N-ethyl-N-(2,2,2-trifluoro-ethyl)-4-amino-benzene]]",very bright ruby
2,"CCN(CC(F)(F)F)c1cc(NC(C)=O)c(N=Nc2c(C#N)cc([N+](=O)[O-])cc2[N+](=O)[O-])cc1OC [Example 2, [2-cyano-4,6-dinitro-benzene]-<1 azo 1>-[2-acetylamino-5-methoxy-N-ethyl-N-(2,2,2-trifluoro-ethyl)-4-amino-benzene]]",greenblue
3,N#Cc1cc([N+](=O)[O-])ccc1N=Nc1ccc(N(CCO)CC(F)(F)F)cc1 [Example 12],scarlet
